These are yes or no findings as the source states them, for the method shown. Binding seen in cells or lysates may run through a third protein. Some entries that bind do so weakly or less than the wild type.

Amino acid sequences for entries named in this document (tags omitted). A change or cut given only in a name is not applied to a line headed by its entry. Chains listed by the source or under a name are the forms on record and can include a tag or linker.
SGF29-C-D194A (Q96ES7, form named): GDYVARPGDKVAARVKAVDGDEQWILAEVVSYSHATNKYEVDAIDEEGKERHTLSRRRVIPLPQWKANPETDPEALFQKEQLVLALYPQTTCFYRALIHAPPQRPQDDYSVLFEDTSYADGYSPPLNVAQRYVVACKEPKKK
SGF29-C-R207P (Q96ES7, form named): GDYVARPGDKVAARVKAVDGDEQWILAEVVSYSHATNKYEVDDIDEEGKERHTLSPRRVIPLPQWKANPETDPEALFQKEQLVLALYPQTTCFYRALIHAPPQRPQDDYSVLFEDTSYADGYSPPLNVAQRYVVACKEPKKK
UniProt P08047: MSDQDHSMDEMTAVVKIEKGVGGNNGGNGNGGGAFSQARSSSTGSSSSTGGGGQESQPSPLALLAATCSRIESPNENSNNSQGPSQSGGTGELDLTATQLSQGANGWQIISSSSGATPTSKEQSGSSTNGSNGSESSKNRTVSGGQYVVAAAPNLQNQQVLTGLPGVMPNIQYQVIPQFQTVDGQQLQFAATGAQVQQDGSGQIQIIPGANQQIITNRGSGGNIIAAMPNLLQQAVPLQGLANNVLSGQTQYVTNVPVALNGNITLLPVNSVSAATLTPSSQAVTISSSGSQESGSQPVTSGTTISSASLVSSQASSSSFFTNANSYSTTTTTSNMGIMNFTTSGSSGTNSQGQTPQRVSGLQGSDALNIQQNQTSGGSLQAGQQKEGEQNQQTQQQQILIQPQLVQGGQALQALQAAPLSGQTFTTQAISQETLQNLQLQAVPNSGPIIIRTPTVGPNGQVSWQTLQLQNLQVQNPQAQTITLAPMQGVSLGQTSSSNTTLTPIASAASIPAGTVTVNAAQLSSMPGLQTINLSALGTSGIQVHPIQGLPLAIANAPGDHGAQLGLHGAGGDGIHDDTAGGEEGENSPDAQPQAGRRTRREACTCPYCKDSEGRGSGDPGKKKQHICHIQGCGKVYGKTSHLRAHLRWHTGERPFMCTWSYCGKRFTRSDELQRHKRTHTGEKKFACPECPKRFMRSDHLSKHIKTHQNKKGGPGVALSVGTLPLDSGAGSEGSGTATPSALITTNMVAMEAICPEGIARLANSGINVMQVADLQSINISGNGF

In one assay the target is SGF29-C-D194A (UniProt Q96ES7). Nature of the assay: co-sedimentation; pelleting assay with purified recombinant SGF29-C-D194A or SGF29-C-R207P.
A further assay deals with SGF29-C-R207P (UniProt Q96ES7). The assay is described as above.

Turning to SP1 (from UniProt P08047 1-785), the binding result with SGF29-C-D194A and with SGF29-C-R207P was “binds” throughout.

B1: MED4 (protein, UniProt Q9NPJ6 1-270)
chain: MAASSSGEKEKERLGGGLGVAGGNSTRERLLSALEDLEVLSRELIEMLAISRNQKLLQAGEENQVLELLIHRDGEFQELMKLALNQGKIHHEMQVLEKEVEKRDSDIQQLQKQLKEAEQILATAVYQAKEKLKSIEKARKGAISSEEIIKYAHRISASNAVCAPLTWVPGDPRRPYPTDLEMRSGLLGQMNNPSTNGVNGHLPGDALAAGRLPDVLAPQYPWQSNDMSMNMLPPNHSSDFLLEPPGHNKENEDDVEIMSTDSSSSSSESD
Consider B1, for which the binding result with SGF29-C-D194A and in the assay with SGF29-C-R207P was “binds” in each case.

Values taken from paper PMC11830007.
